Measured values reported in patent US20080102065A1.
Where a chain is given by its changes, count along the chain named. No constants are given. Whether binding was seen depends on the method and setting. Some results given as binding are weak or reduced against the parent protein; the word gives no strength. Sequences can lack the tags named with a protein. One block for each binder: values may come before it.

How the values were obtained:
[1] = target: T1, mouse EpoR (muEpoR) (mouse) (UniProt P14753); experiment: ELISA on coated muEpoR, scFv-Fc at 5 µg/ml (Example 17)
T1 sequence (looked up): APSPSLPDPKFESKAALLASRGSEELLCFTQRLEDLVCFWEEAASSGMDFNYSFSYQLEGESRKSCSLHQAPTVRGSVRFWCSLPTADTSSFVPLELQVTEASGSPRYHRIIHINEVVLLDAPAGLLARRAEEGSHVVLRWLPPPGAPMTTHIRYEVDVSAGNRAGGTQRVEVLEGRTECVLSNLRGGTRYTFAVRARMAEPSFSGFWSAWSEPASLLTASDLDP

[2] = target: cynomolgus monkey EpoR (cynoEpoR) (cynomolgus monkey); experiment: ELISA, cynoEpoR coated, scFv-Fc 5 ug/ml
[3] = target: T1, mouse EpoR (muEpoR) (mouse); experiment: ELISA, muEpoR coated, scFv-Fc 5 ug/ml
[4] = target: cynomolgus monkey EpoR (cynoEpoR) (cynomolgus monkey); experiment: ELISA on coated cynoEpoR, scFv-Fc at 5 µg/ml (Example 17)

binding [1]: binds | binding [2]: binds | binding [3]: binds | binding [4]: binds
B1: Mxb 276 (clone 276 scFv-Fc protein) (Fc fusion)
VH: EVQLVQSGGGLVQPGGSLRLSCAASGFTFSSYWMSWVRQAPGKGLEWVANIKPDGSEKYYVDSVKGRFTISRDNAKNSVYLQMNSLRAEDTAVYYCARVSRGGSYSDWGRGTMVTVSS
VL: QSVLTQPPSASGSPGQSVTISCTGTSSDVGGFNYVSWYQKYPGKAPKLVIYEVSKRPSGVPDRFSGSKSGNTASLTVSGLQAEDEADYYCSSWAPGKNLFGGGTKLTVL

binding [1]: binds | binding [2]: binds | binding [3]: binds | binding [4]: binds
B2: Mxb 323 (clone 323 scFv-Fc protein) (Fc fusion)
VH: B1 VH with E1Q, Q6E, A24V, S31K, S35T, D62E, L86V, Y105F
VL: QSALTQPASVSGSPGQSITISCTGTSSDVGSYNLVSWYQQHPGKVPKLIIYEVSNRPSGVSHRFSGSKSGNTASLTISGLQAEDEADYYCSSLTSSGTWVFGGGTKVTVL

binding [2]: binds | binding [4]: binds
B3: Mxb 307 (clone 307 scFv-Fc protein) (Fc fusion)
VH: B1 VH with Q6E, A24V, S31K, S35T, D62E, L86V, Y105F, R110Q
VL: QSVLTQPPSASGSPGQSVTISCTGTSSDVGGYNYVSWYQQHPDKAPRLMIYDVNKRPSGVPDRFSGSKSGNTASLTVSGLQAEDEAHYYCNSYAGSNNWVFGGGTQLTVL

binding [1]: binds | binding [2]: binds | binding [3]: binds | binding [4]: binds
B4: Mxb 352 (clone 352 scFv-Fc protein) (Fc fusion)
VH: B1 VH with T28R, S35T, I70M, Y105F, R110Q, M113L
VL: QSALTQPASVSGSPGQSITIPCTGTSSDIGTYDYVSWYQQHPGKVPKVIIYEVTNRPSGVSNRFSGSKSGNTASLTISGLQADDEADYYCNSFTKNNTWVFGGGTKLTVL

binding [2]: binds | binding [4]: binds
B5: Mxb 318 (clone 318 scFv-Fc protein) (Fc fusion)
VH: B1 VH with E1Q, Q6E, A24V, S31K, S35T, D62E, L86V, Y105F, R110Q, M113L
VL: QSVLTQPPSASGSPGQSVTISCTGTSSDVGGYNYVSWYQQHPGRAPKLIIYEVSKRPSGVPDRFSGSKSGNTASLTVSGLQADDEADYYCNSYAGSIYVFGSGTKVTVL

binding [1]: binds | binding [2]: binds | binding [3]: binds | binding [4]: binds
B6: Mxb 378 (clone 378 scFv-Fc protein) (Fc fusion)
VH: QVQLVESGGGLVQPGRSLILSCAVSGFTFSKYWMTWVRQAPGKGLEWVANIKPDGSEKYYVESVKGRFTISRDNAKNSVYLQMNSVRAEDTAVYYCARVSRGGSFSDWSQGTLVTVSS
VL: QSALTQPPSASGSPGQSVTISCTGTSGDVGAYNYVSWYQQYPGKAPKLMIYEVSKRPSGVPDRFSGSKSGNTASLTVSGLQAEDEADYYCNSYRGSNGPWVFGGGTKVTVL

binding [2]: binds | binding [4]: binds
B7: Mxb 15 (clone 15 scFv-Fc protein) (Fc fusion)
VH: QVQLQESGPGLVRPSGTLSLTCAVSGGSIGSSNWWSWVRQAPGKGLEWIGEISQSGSTNYNPSLKGRVTISLDRSRNQLSLKLSSVTAADTAVYYCARQLRSIDAFDIWGPGTTVTVSA
VL: SYVLTQPPSVSVSPGLTATITCSGDKLGDKYASWYQQKPGQSPVLVIYQDRKRPSGIPERFSGSNSGNTATLTISGTQAVDEADYYCQAWDSDTSYVFGTGTQLTVL

binding [2]: binds | binding [4]: binds
B8: Mxb 319 (clone 319 scFv-Fc protein) (Fc fusion)
VH: QVQLVQSGAEIKKPGASVKVSCKTFGSPFSTNDIHWVRQAPGQGLEWMGIIDTSGAMTRYAQKFQGRVTVTRETSTSTVYMELSSLKSEDTAVYYCAREGCTNGVCYDNGFDIWGQGTLVTVSS
VL: DIQMTQSPSTLSASIGDRVTITCRASEGIYHWLAWYQQKPGKAPKLLIYKASSLASGAPSRFSGSGSGTDFTLTISSLQPDDFATYYCQQYSNYPLTFGGGTKLEIK

binding [2]: binds | binding [4]: binds
B9: Mxb 295 (clone 295 scFv-Fc protein) (Fc fusion)
VH: EVQLVESGGGLVQPGGSLRLSCAASGFTFSSYAMSWVRQAPGKGLEWVSGISGSGSSEGGTYYADSVKGRFTLSRDNSKNTLYLQMNSLRAEDTALYYCVKDRPSRYSFGYYFDYWGRGTLVTVSS
VL: LPVLTQPPSVSVSPGQTASIACSGNKLGDKYVSWYQQKPGQSPLLVIYQDTKRPSGIPERFSGSNSGNTATLTISGTQAMDEADYYCQAWDSSTDVVFGGGTKLTVL

binding [2]: binds | binding [4]: binds
B10: Mxb 16 (clone 16 scFv-Fc protein) (Fc fusion)
VH: QVQLQESGPGLVKPSETLSLTCTVSGGYINNYYWSWIRQPPGKGLEWIGYIHYSGSTYYNPSLKSRVTISEDTSKNQFSLKLSSATAADTAVYYCARVGYYYDSSGYNLAWYFDLWGRGTLVTVSA
VL: SSELTQDPAVSVALGQTVRITCQGDNLRSYSATWYQQKPGQAPVLVLFGENNRPSGIPDRFSGSKSGDTAVLTITGTQTQDEADYYCTSRVNSGNHLGVFGPGTQLTVL

binding [2]: binds | binding [4]: binds
B11: Mxb 13 (clone 13 scFv-Fc protein) (Fc fusion)
VH: QVQLQQSGGGVVQPGRSLRLSCAASGFTFSDYAMHWVRQAPGKGLEWVAVISNHGKSTYYADSVKGRFTISRDNSKHMLYLQMNSLRADDTALYYCARDIALAGDYWGQGTLVTVSA
VL: DIQMTQSPSSLSASVGDRVTITCRASQSISSYLNWYQQLPGKVPKLLIYGASKLQSGVPSRFSGSGSGTDFTLTISSLQPEDFATYYCLQDYNYPLTFGPGTRLEIK

binding [2]: binds | binding [4]: binds
B12: Mxb 34 (clone 34 scFv-Fc protein) (Fc fusion)
VH: QVQLQQSGAEVKKPGASVKVSCKASGYTFSGYYMHWVRQAPGQGLEWMGWINPNSGSTNYAQKFLGRVTMTRDTSISTAYMELSSLRSDDTAVYYCARGHSGDYFDYWGQGTLVTVSA
VL: EIVLTQSPSSLSASVGDRVTITCRASQSVSSWLAWYQQRPGQAPKLLIYAARLRGGGPSRFSGSGSGTEFTLTISSLQPEDFATYFCQQSYSTPISFGGGTKLEIK
